The list is a part of this screen's results and no random one: it is rich in T/C values a quarter to a half above the control, in often repeated tests (any T/C) and in doses without a T/C. Other doses and runs of a compound stand elsewhere. T/C is the treated group as % of the vehicle group. Some entries give survivors of the animals treated and no T/C: the source files T/C as zero there, which appears to mark a toxic dose or a test without result, not a measured value. Some doses without a T/C left all or most animals alive at the check, yet need not have been tolerated: the source hardly ever lists a survival T/C far under the control, and the zero likely stands for such cases as well. Survivors were counted at the toxicity check, usually on the fifth day, unless a day is given; later deaths do not show. Schedule codes are those of the source, taken here to give the interval after Q, in days (D) or hours (H), and the number of doses after X. Some entries hold several experiments; the values are given in rising order. Some schedule codes hold Z or #, which are not explained here. Where survival is the endpoint, this PubChem deposit counts one and a half times the control or more as active, and values a quarter to a half above the control carry no call in these data; other NCI protocols may use other cut-offs. Some T/C values are followed by the survivors on the day toxicity was checked, most often the fifth; without a count, all were alive then.
System: L1210 leukemia ip in BDF1 mice, survival T/C
Assay: NCI In Vivo Anticancer Drug Screen. Data for tumor model L1210 Leukemia (intraperitoneal) in B6D2F1 (BDF1) mice
Details: T/C endpoint: mean survival time, higher T/C = longer survival
[1] = dose: 400.0 mg/kg/injection, schedule: Q01DX001 (ip), vehicle: saline
[2] = dose: 200.0 mg/kg/injection, schedule: Q04DX003 (ip), vehicle: Klucel (hydroxypropylcellulose) (HPC)
[3] = dose: 400.0 mg/kg/injection, schedule: Q04DX003 (ip), vehicle: Klucel (hydroxypropylcellulose) (HPC)
[4] = dose: 400.0 mg/kg/injection, schedule: Q04DX003 (ip), vehicle: saline
[5] = dose: 400.0 mg/kg/injection, schedule: Q01DX009 (ip), vehicle: saline with Tween-80
[6] = dose: 300.0 mg/kg/injection, schedule: Q01DX001 (ip), vehicle: other
[7] = dose: 200.0 mg/kg/injection, schedule: Q04DX003 (ip), vehicle: saline
[8] = dose: 300.0 mg/kg/injection, schedule: Q04DX003 (ip), vehicle: saline

C=CCc1ccc2c(C)cc[n+](C)c2c1O
survivor count [1]: 1 of 4

CCCC(C)C(C#N)c1ccccc1 (configuration not stated)
survivor count (dose: 25.0 mg/kg/injection, schedule: Q01DX009 (ip), vehicle: Klucel (hydroxypropylcellulose) (HPC)): 5 of 6
survivor count (dose: 75.0 mg/kg/injection, schedule: Q01DX009 (ip), vehicle: Klucel (hydroxypropylcellulose) (HPC)): 3 of 6
survivor count (dose: 100.0 mg/kg/injection, schedule: Q01DX009 (ip), vehicle: Klucel (hydroxypropylcellulose) (HPC)): 2 of 6 and 3 of 6
survivor count (dose: 100.0 mg/kg/injection, schedule: Q04DX003 (ip), vehicle: Klucel (hydroxypropylcellulose) (HPC)): 6 of 6
survivor count [2]: 2 of 6
survivor count [3]: 0 of 6

O=C(Nc1cccc2ccccc12)Oc1ccc(Cl)cc1Cc1ccccc1
survivor count (dose: 400.0 mg/kg/injection, schedule: Q04DX002 (ip), vehicle: Klucel (hydroxypropylcellulose) (HPC)): 3 of 3

CC(C)(C)OC(=O)NC(CC(N)=O)C(=O)ON1C(=O)CCC1=O (configuration not stated)
T/C (dose: 100.0 mg/kg/injection, schedule: Q01DX009 (ip), vehicle: saline): 125 % of control

O=C(NCCc1ccccc1)c1ccc2ccccc2n1
survivor count (dose: 12.5 mg/kg/injection, schedule: Q01DX009 (ip), vehicle: DMSO): 6 of 6
survivor count (dose: 50.0 mg/kg/injection, schedule: Q01DX009 (ip), vehicle: DMSO): 2 of 6
survivor count (dose: 100.0 mg/kg/injection, schedule: Q01DX009 (ip), vehicle: DMSO): 5 of 6
survivor count (dose: 200.0 mg/kg/injection, schedule: Q01DX009 (ip), vehicle: DMSO): 2 of 6
survivor count (dose: 400.0 mg/kg/injection, schedule: Q01DX009 (ip), vehicle: DMSO): 0 of 6

CCOC(C)=N
survivor count (dose: 400.0 mg/kg/injection, schedule: Q01DX008 (ip), vehicle: saline): 2 of 6

CC(C)NNC(=O)C(C)N (configuration not stated)
survivor count [4]: 4 of 4

OC1C2COc3nc4ccccc4n3C(O2)C1O (configuration not stated)
survivor count [1]: 6 of 6

CCC(=O)c1ccc(N=Nc2c(N)nc(N)nc2N)cc1
survivor count [1]: 0 of 4

O=C(Nc1ccc(Cl)c(C(F)(F)F)c1)Oc1ccccn1
survivor count (dose: 200.0 mg/kg/injection, schedule: Q01DX009 (ip), vehicle: saline with Tween-80): 0 of 6
survivor count [5]: 0 of 6

O=C(O)c1cc(N=Nc2cccc([N+](=O)[O-])c2)ccc1O
survivor count (dose: 250.0 mg/kg/injection, schedule: Q01DX001 (ip), vehicle: Klucel (hydroxypropylcellulose) (HPC)): 2 of 6

O=C1c2ccccc2C(=O)c2c1cccc2N1CCOCC1
T/C (dose: 100.0 mg/kg/injection, schedule: Q04DX002 (ip), vehicle: Klucel (hydroxypropylcellulose) (HPC)): 127 % of control [2 of 2 alive]

c1ccc(-n2cc(-c3nc(N4CC4)nc(N4CC4)n3)c3ccccc32)cc1
survivor count (dose: 200.0 mg/kg/injection, schedule: Q01DX009 (ip), vehicle: Klucel (hydroxypropylcellulose) (HPC)): 4 of 6
survivor count [3]: 6 of 6

COc1cc(OC)c(/C=C/c2cnc3ccccc3n2)c(OC)c1
survivor count (dose: 12.5 mg/kg/injection, schedule: Q04DX002 (ip), vehicle: saline with Tween-80): 3 of 3
survivor count (dose: 25.0 mg/kg/injection, schedule: Q04DX002 (ip), vehicle: saline with Tween-80): 3 of 3

CN=C(NC)c1cccc(NC(=O)c2cccc(C(=O)Nc3cccc(C(=NC)NC)c3)c2)c1
survivor count (dose: 33.0 mg/kg/injection, schedule: Q01DX Z (ip), vehicle: carboxymethylcellulose (CMC)): 0 of 6
survivor count (dose: 50.0 mg/kg/injection, schedule: Q01DX Z (ip), vehicle: carboxymethylcellulose (CMC)): 0 of 6

CCC(C)NC(=S)Nc1ccccc1 (configuration not stated)
survivor count (dose: 75.0 mg/kg/injection, schedule: Q01DX001 (ip), vehicle: other): 0 of 6
survivor count (dose: 150.0 mg/kg/injection, schedule: Q01DX001 (ip), vehicle: other): 0 of 6
survivor count [6]: 0 of 6

NC(N)=NC1CCCC1
survivor count [7]: 0 of 6
survivor count [4]: 0 of 6

FC(F)(F)c1ccc(-c2ccc(OCCN3CCCC3)cc2)cc1
survivor count (dose: 37.5 mg/kg/injection, schedule: Q01DX009 (ip), vehicle: saline): 6 of 6
survivor count (dose: 75.0 mg/kg/injection, schedule: Q01DX009 (ip), vehicle: saline): 3 of 6
survivor count (dose: 150.0 mg/kg/injection, schedule: Q01DX009 (ip), vehicle: saline): 0 of 6
survivor count [8]: 0 of 6

N=C(N)CCc1ccccc1
survivor count [8]: 1 of 6

CCCC(C)CCCNCCOC(=O)c1cccc(N)c1 (configuration not stated)
survivor count [6]: 2 of 6

CN(C)CC1CCC(CN(C)C)C1=O (configuration not stated)
survivor count (dose: 37.5 mg/kg/injection, schedule: Q01DX001 (ip), vehicle: saline): 1 of 6

O=C(NCc1ccccc1)c1ccccc1/C(=N/O)c1ccccc1
survivor count (dose: 100.0 mg/kg/injection, schedule: Q01DX009 (ip), vehicle: saline with Tween-80): 6 of 6
survivor count [5]: 6 of 6

COC(=O)C1=C(C(=O)OC)[N+](C)(C)N=C1[O-]
survivor count [7]: 1 of 6
survivor count [4]: 0 of 6

CCN(CC)CCCC(C)Nc1c2ccccc2nc2c(Cl)cccc12 (configuration not stated)
survivor count (dose: 33.33 mg/kg/injection, schedule: Q#B X Z (ip), vehicle: methylcellulose (MC)): 0 of 6
survivor count (dose: 45.0 mg/kg/injection, schedule: Q07DX Z (ip), vehicle: methylcellulose (MC)): 0 of 6
survivor count (dose: 67.0 mg/kg/injection, schedule: Q07DX Z (ip), vehicle: methylcellulose (MC)): 0 of 6
survivor count (dose: 100.0 mg/kg/injection, schedule: Q01DX Z (ip), vehicle: methylcellulose (MC)): 0 of 6 and 4 of 6
survivor count (dose: 100.0 mg/kg/injection, schedule: Q03DX Z (ip), vehicle: methylcellulose (MC)): 0 of 6
survivor count (dose: 100.0 mg/kg/injection, schedule: Q07DX Z (ip), vehicle: methylcellulose (MC)): 0 of 6
survivor count [2]: 1 of 6

O=C1NC(=S)S/C1=C\c1ccc(Cl)c(Cl)c1
survivor count [5]: 3 of 6
